In patent US20030105300A1, “Tumor targeted photodiagnostic-phototherapeutic agents” (MALLINCKRODT INC., priority 2001, published 2003):
Part of at least one peptide drawing is inferred or uncertain, most often the ends.

Experiments:
[1] = system: SST-2 receptors present in the CA20948 rat tumor model; test: In vivo fluorescence imaging of rat pancreatic acinar carcinoma (CA20948) with Cytate 1; parameters: species or system male Lewis rats
[2] = system: CA20948 rat pancreatic tumor; test: Fluorescence endoscopy imaging of CA20948 tumor in GI tract with Cytate; format: in vivo, Lewis rat; details: CA20948 tumor in submucosa; endoscope 60 minutes post-injection, tail vein; excitation 780 nm, detection 830 nm

## C[C@@H](O)[C@H](NC(=O)[C@@H]1CSSC[C@H](NC(=O)[C@@H](Cc2ccccc2)NC(=O)CC[N+]2=C(/C=C/C=C/C=C/C=C3/N(CCC(=O)O)c4ccc5ccccc5c4C3(C)C)C(C)(C)c3c2ccc2ccccc32)C(=O)N[C@@H](Cc2ccc(O)cc2)C(=O)N[C@H](Cc2c[nH]c3ccccc23)C(=O)N[C@@H](CCCCN)C(=O)N[C@@H]([C@@H](C)O)C(=O)N1)C(=O)O [Cytate 1, monooctreotate-bisethylcarboxymethylindocyanine dye]
[1]; 45 minutes post administration (FIG. 3b)
  fluorescent image: green and yellow areas in the left and right flanks and in the tail, however, there was a dark blue/blue green area in the left flank
[1]; 27 hours post administration (FIG. 4)
  fluorescent image: only the left flank showed a blue/blue green fluorescent area
[1]; CA20948 tumor, 0.5 ml of 1.0 mg/ml in 25% DMSO/water, tail vein
  specificity for SST-2 receptors (dye localization in the tumor): demonstrated the specificity of cytate 1 for the SST-2 receptors
[1]; one minute post administration (FIG. 3a)
  fluorescent image: suggested the presence of the tumor in the left flank of the animal
[2]
  fluorescence intensity in the tumor versus surrounding normal tissues: much higher than in the surrounding normal tissues
